Experimental data: publication PMC9462472
Results are given in words; binding and its absence hold for the method and conditions named. In cells and extracts the contact can be indirect. Some binding calls cover weakened binding; strength is not graded here.

Target: T1, dynamin-2 (mouse (endogenous in C2C12 myotubes and mouse muscle)) (UniProt P39054)
T1 sequence: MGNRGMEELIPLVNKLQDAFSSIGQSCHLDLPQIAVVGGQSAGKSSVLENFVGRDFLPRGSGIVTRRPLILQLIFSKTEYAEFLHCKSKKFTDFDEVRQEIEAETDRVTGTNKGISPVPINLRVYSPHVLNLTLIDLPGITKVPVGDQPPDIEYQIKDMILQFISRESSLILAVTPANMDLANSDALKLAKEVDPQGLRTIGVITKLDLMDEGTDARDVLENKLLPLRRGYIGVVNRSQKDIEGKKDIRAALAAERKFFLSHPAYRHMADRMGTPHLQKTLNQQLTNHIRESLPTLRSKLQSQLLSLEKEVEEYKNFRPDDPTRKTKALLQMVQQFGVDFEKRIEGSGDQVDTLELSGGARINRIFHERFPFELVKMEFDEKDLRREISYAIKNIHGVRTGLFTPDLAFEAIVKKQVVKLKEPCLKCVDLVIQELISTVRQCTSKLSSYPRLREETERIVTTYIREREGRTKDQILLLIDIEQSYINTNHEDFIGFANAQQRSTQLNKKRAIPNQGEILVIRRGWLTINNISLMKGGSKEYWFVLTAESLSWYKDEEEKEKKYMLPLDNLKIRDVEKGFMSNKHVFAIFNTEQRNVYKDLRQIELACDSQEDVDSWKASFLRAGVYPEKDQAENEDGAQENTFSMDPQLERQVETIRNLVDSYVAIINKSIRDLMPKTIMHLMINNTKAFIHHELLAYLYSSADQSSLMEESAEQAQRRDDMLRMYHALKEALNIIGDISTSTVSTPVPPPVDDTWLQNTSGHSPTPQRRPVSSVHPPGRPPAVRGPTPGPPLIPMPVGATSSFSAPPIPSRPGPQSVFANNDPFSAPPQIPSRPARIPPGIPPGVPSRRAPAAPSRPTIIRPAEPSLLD
Test: co-IP; endogenous proteins in lysates of differentiated C2C12 myotubes, soleus and triceps; IP with anti-SPEG or anti-DNM2 antibody at 4°C for 12 to 24 hours, Dynabead Protein G beads, washed 3 times with co-IP buffer with 0.1% CHAPS; immunoblot

## Striated preferentially expressed protein kinase, SPEG-β isoform (from UniProt Q62407-1 1-3262)
  binding: binds
